The list shows a part of the results. Further columns of the screen follow, without active or inactive calls. The list favours compounds with an active or inconclusive main result. The note in brackets gives the kind of curve behind each potency; many fits are weak.

A short description of the assay: qHTS Assay for Identifying the Cell-Membrane Permeable IMPase Inhibitors. As to conditions: CHO-M1 cells, IP1 accumulation, HTRF TR-FRET ratio; measured here: donor channel 620 nm AC50. Background: qHTS replaces the single test concentration by a dilution series.
Broadly, the AC50 is the concentration at which the activity in the assay is half-maximal. With `CCNC(=O)CCc1nc(-c2ccc(C(C)(C)C)cc2)no1`, the AC50 is 25.1 µM [falling, single point].
Then `CCCCSC1(SCCCC)N=C(N)C2(C#N)C(c3ccccc3)NC(C)=C(C)C12C#N` (configuration not stated), with 0.0158 µM [rising, full curve, poor fit]; and `c1ccc(OCc2nn3c(-c4ccncc4)nnc3s2)cc1`, with 3.16 µM [falling, partial curve].
Then `O=C1Nc2cc(Cl)ccc2C1(N1CCNCC1)C(F)(F)F` (configuration not stated), with 2 µM [falling, partial curve].
Then `CCOc1ccc(OCC)c(NC(=O)CN2CCN(c3cccc(C)c3)CC2)c1`, with 2.51 µM [falling, partial curve, poor fit].
As for `CCC(=O)Nc1ccc(C(=O)Nc2ccc(OC)cc2[N+](=O)[O-])cc1`, the AC50 is 0.0224 µM [falling, full curve, poor fit].
With `CCOC(=O)N1CCC(NC(=O)C2CCN(S(=O)(=O)N3CCC(C)CC3)CC2)CC1` the figure was 0.0501 µM [falling, full curve, poor fit].
Then `O=C(Nc1ccc(O)c(-c2nc3ccccc3o2)c1)c1sc2ccccc2c1Cl`, with 14.1 µM [rising, partial curve]; and `NC(=O)C1(N2CCCCC2)CCN(CC(=O)Nc2ccccc2-c2ccccc2)CC1`, with 0.112 µM [rising, full curve, poor fit]; and `COc1ccc(NC(=O)C2C(=O)N(C)C3(C)CC2c2ccccc2O3)cc1` (configuration not stated), with 2.51 µM [rising, full curve, poor fit].
Then `CCCS(=O)(=O)N1CCN(Cc2ccncc2)CC1`, with 1.58 µM [falling, full curve, poor fit]; and `CC(C)N1CC(O)=C(c2nc3ccccc3c(=O)[nH]2)C1=N`, with 10 µM [falling, partial curve, poor fit]; and `CCOC(=O)Cn1c(=S)[nH]c2c(oc3ccc(Cl)cc32)c1=O`, with 3.16 µM [rising, single point].
`COc1ccc(NS(=O)(=O)c2cccc(-c3nnc4n3CCCCC4)c2)cc1`: the AC50 is 0.501 µM [falling, full curve].
Then `CCOc1ccc(C(=O)N2CCSC2=S)cc1`, with 0.0794 µM [falling, full curve, poor fit]; and `CC1=CC(C)(C)NC(=S)N1c1cccc2ccccc12`, with 0.251 µM [falling, single point].
With `COc1ccc(C(=O)N2CC3(C)CC2CC(C)(C)C3)cc1OC` (configuration not stated), the AC50 is 2.51 µM [falling, partial curve].
Turning to `Cc1cc(C(=O)OC2CCOC2=O)c2ccccc2n1` (configuration not stated), the AC50 is 5.01 µM [rising, single point].
For the compound `Cc1ccccc1N1CCN(CCCOc2ccc3c(C)cc(=O)oc3c2)CC1`, the AC50 is 0.631 µM [falling, full curve, poor fit].
With `Cn1ncc2c(=O)n(CC(=O)NC34CC5CC(CC(C5)C3)C4)cnc21` the figure was 3.16 µM [falling, single point].
Then `CC1C(C)C(O)(c2ccccc2)CCN1C` (configuration not stated), with 5.01 µM [falling, single point].
Regarding `COC(=O)c1ccccc1NC(=O)c1cc2ncc(Br)cn2n1`, the AC50 was 0.0891 µM [falling, full curve].
As to `CCN1C(=O)/C(=C2/C=CC=CN2C)OC1=S`, the AC50 is 2 µM [falling, partial curve].
With `CCOCC(O)CSCc1ccc(Cl)cc1` (configuration not stated) the figure was 0.282 µM [falling, full curve, poor fit]; with `CCOC(=O)CNC(=O)C1c2cc(OC)c(OC)cc2C(=O)N(C)C1c1ccccc1F` (configuration not stated), 3.98 µM [falling, full curve]; with `CCC1Oc2ccc(C)cc2N(CC(=O)N(Cc2cccnc2)Cc2cccc(F)c2)C1=O` (configuration not stated), 12.6 µM [falling, single point].
Then `CC(Sc1cnc2ccccc2n1)C(=O)O` (configuration not stated), with 10 µM [rising, partial curve]; and `Cc1oc2c(c1C(=O)NCc1cc(C(=O)O)co1)CCCC2`, with 0.126 µM [falling, full curve, poor fit]; and `CCOc1ccccc1-n1nnnc1SCC(=O)Nc1cc(C)on1`, with 5.01 µM [rising, single point].
With `Cc1cc(SCNC(=O)c2ccccc2)ncn1` the figure was 2 µM [falling, full curve].
For `O=C(Cn1nnc(-c2ccc(N3CCOCC3)cc2)n1)OC1CCCCC1`, the AC50 was 0.631 µM [rising, partial curve, poor fit].
For the compound `O=C(NCc1cccnc1)c1ccc(COc2ccccc2Br)o1`, the AC50 is 5.62 µM [rising, partial curve, poor fit].
As to `c1ccc(CN(CC2=NCCN2)c2ccccc2)cc1`, the AC50 was 0.501 µM [falling, full curve, poor fit].
With `Cc1[nH]ccc(=O)c1OCc1ccc(Cl)cc1` the figure was 35.5 µM [falling, single point]; with `CC(C)(C)OC(=O)N1CCC[C@H]1c1nnc(SCc2c(F)cccc2Cl)o1`, 0.0251 µM [rising, partial curve, poor fit].
With `COc1ccccc1C1=NN(C(=S)Nc2ccccc2)C(c2ccco2)C1` (configuration not stated) the figure was 6.31 µM [falling, single point]; with `CN1CCN(C=NC2=NN(c3cccc(C(F)(F)F)c3)CC2)CC1`, 28.2 µM [falling, partial curve].
Then `CCOC(=O)N1CCC(NC(=O)c2ccc3c(c2)N(Cc2ccc(F)cc2)CCS3)CC1`, with 12.6 µM [falling, single point].
With `COc1ccc(N2CCN(S(=O)(=O)c3ccc(OC)cc3)CC2)cc1`, the AC50 is 31.6 µM [falling, single point].
Consider `O=C(O)COc1ccc2nsnc2c1Cl`, for which the AC50 was 15.8 µM [rising, single point].
Consider `N#CCc1ccc(NC(=O)Nc2cccc(Cl)c2)cc1`, for which the AC50 was 31.6 µM [falling, single point].
Then `CCN(C(=O)c1ccc(C(C)(C)C)cc1)c1nnc(Cn2nnc3ccccc32)s1`, with 25.1 µM [falling, single point].
With `C/C(Cl)=C/Cn1c(=O)c2c(nc(Br)n2Cc2ccccc2)n(C)c1=O` the figure was 1.26 µM [rising, partial curve]; with `O=C(Nc1ccccc1O)c1cc(S(=O)(=O)N2CCCC2)ccc1Cl`, 0.126 µM [falling, full curve].
On to `COc1ccc(C(=O)NCc2ccc(-c3nc4ccccc4s3)cc2)cc1`, for which the AC50 was 0.158 µM [falling, full curve, poor fit].
For `Cc1c(/C=C(\C#N)C(=O)Nc2cccc(Cl)c2)c2ccccc2n1Cc1ccccc1`, the concentration at half-maximal activity (AC50) was 0.126 µM [falling, single point].
With `COc1ccc(-c2noc(-c3ccc(C)cc3Cl)n2)cc1OC` the figure was 35.5 µM [falling, single point].
Take `COc1ccc(C(c2nnnn2C2CCCC2)N2CCC(C)CC2)cc1` (configuration not stated): the AC50 was 0.0631 µM [falling, full curve, poor fit].
With `CC(=O)Nc1cccc(NC(=O)CSc2nnc(Cc3cccn3C)n2CCc2ccccc2)c1`, the concentration at half-maximal activity (AC50) is 0.0501 µM [falling, full curve, poor fit].
Then `CCN(CC)CC(=O)N(CC(=O)Nc1c(C)cc(C)cc1C)C1CCCCC1`, with 31.6 µM [falling, single point].
With `COc1cc2c(cc1OC)CN(CC(=O)Nc1cccc(C)c1)CC2`, the concentration at half-maximal activity (AC50) was 5.62 µM [falling, single point].
With `Cc1ccc(-n2c(=S)[nH]c3c(oc4ccccc43)c2=O)cc1` the figure was 2.51 µM [rising, full curve]; with `C=CCn1c(CNc2ccc(C)cc2)nnc1SCC(=O)N/N=C/c1ccc(O)cc1O`, 31.6 µM [falling, single point].
On to `COc1ccc(S(=O)(=O)N(CC(=O)Nc2ccc(OC)cc2OC)c2ccc(Cl)cc2)cc1`, for which the concentration at half-maximal activity (AC50) was 2 µM [falling, partial curve].
Take `Cc1ccc(C(=O)NC(=S)Nc2ccccc2C(F)(F)F)cc1`: the AC50 is 3.98 µM [rising, full curve].
`O=C(CN(CCO)c1ccccc1)NC12CC3CC(CC(C3)C1)C2`: the AC50 is 0.1 µM [rising, full curve].
Take `COc1ccc(/C=N/O)cc1COc1ccc(NC(C)=O)cc1`: the concentration at half-maximal activity (AC50) was 0.02 µM [rising, full curve, poor fit].
For `CCOC(=O)C(NC(=O)Nc1cccc(C)n1)(OCC(F)(F)F)C(F)(F)F` (configuration not stated), the AC50 is 0.631 µM [rising, full curve, poor fit].
As for `COc1ccc(-c2cc(-c3ccccc3)c(C#N)c(SCC(O)CS(=O)(=O)Cc3ccccc3)n2)cc1` (configuration not stated), the AC50 is 20 µM [falling, single point].
With `CN=c1scc(C)n1/N=C/c1ccc(O)c(O)c1O` the figure was 12.6 µM [falling, partial curve]; with `Cc1cc(=O)oc2cc3c(cc12)OCCN3`, 1.26 µM [rising, full curve, poor fit]; with `CC(C)n1nnnc1SCC(=O)Nc1ccccc1N1CCOCC1`, 0.0251 µM [rising, full curve, poor fit].
Then `COc1ccc(CCNC(=O)CSc2ccc3ccccc3c2)cc1OC`, with 11.2 µM [rising, partial curve]; and `Cn1c2c(c(=O)n(C)c1=O)C(NS(=O)(=O)c1ccccc1)(C(F)(F)F)C(=O)N2` (configuration not stated), with 0.398 µM [rising, partial curve, poor fit]; and `COCCSc1ccccc1C(=O)NCC1CCCO1` (configuration not stated), with 10 µM [falling, partial curve, poor fit].
With `COc1ccc(C(=O)/C(C)=N/O)cc1OC` the figure was 31.6 µM [falling, single point]; with `CC1=NN(c2cccc(C(=O)O)c2)C(=O)/C1=C\C=C\c1ccco1`, 0.794 µM [falling, full curve].

(Values after PubChem BioAssay AID901 (National Center for Advancing Translational Sciences (NCATS), 2007).)
